PubChem BioAssay AID602196 | INSERM – 2012
Shown is a random part of about 23,000 deposited reagents. Of all reagents, 455 (2%) were called active. 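Active includes both protection and sensitisation; some change values fall well beyond the stated -50 to +50 range.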 Reagent sequences are not shown. Not stated in the record: the amount of reagent.

Aim: 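Modifiers of cisplatin sensitivity in A549 cells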
System: human A549 lung cancer cells
Knock-down reagent: siRNA pair against human genes
Timing: 48 h transfection before cisplatin; time from cisplatin to read-out not stated
Conditions: cisplatin at a dose killing half of control-siRNA cells; exact dose and duration not given
Measurement: 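Cisplatin cell death as a shift from the 50% death seen with control siRNA; siRNAs toxic or growth-blocking alone scored 0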
Reading the numbers: two-siRNA summed score (-2 to +2): higher = both siRNAs protect from cisplatin killing; -2 means both sensitise; mean protection from cisplatin (shift in death) and protection from cisplatin (shift in death), siRNA C and protection from cisplatin (shift in death), siRNA D: higher = protection from cisplatin killing
Hit rule: 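Each siRNA scores 0 if harmful alone by LDH or WST-1, otherwise +1 if it reduces and -1 if it increases cisplatin killing; a gene is active when both siRNAs agree (sum +2 or -2)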
Calls: active = both siRNAs shift cisplatin killing the same way; inactive = no consistent shift, or siRNA harmful alone

no.	Gene	two-siRNA summed score (-2 to +2)	mean protection from cisplatin (shift in death) (%)	protection from cisplatin (shift in death), siRNA C (%)	protection from cisplatin (shift in death), siRNA D (%)	Outcome
1	BPGM	0	-0.2	3	-3.4	inactive
2	LOC401391	0	13	14.8	11.2	inactive
3	GPR27	1	21.6	29.5	13.8	inactive
4	LOC439970	0	-8.8	-8.4	-9.1	inactive
5	LOC440359	0	13.3	13.2	13.4	inactive
6	LOC387931	0	7.8	1.9	13.8	inactive
7	TBL1X	0	-4.9	-6.8	-3	inactive
8	MAP2K6	0	1.1	0.2	2.1	inactive
9	SNAP29	0	3.2	9.5	-3.1	inactive
10	CPSF7	0	1.1	0	2.2	inactive
11	PCDHGB3	0	9.3	8.1	10.4	inactive
12	DSG3	-2	-9.8	-11.9	-7.8	active
13	CRYAB	1	8.9	26.2	-8.3	inactive
14	LOC388496	1	8.9	-2.3	20.1	inactive
15	SECISBP2L	2	13.9	13.9	13.9	active
16	CCDC134	0	-0.3	7.2	-7.9	inactive
17	B3GAT1-DT	0	5.6	15	-3.9	inactive
18	SF3A1	0	-0.9	9.5	-11.3	inactive
19	WSB1	0	-0.8	-7.2	5.5	inactive
20	LOC126520	1	22.4	28.1	16.8	inactive
21	PAMR1	0	4.2	10.6	-2.1	inactive
22	LOC342599	0	9.6	17.9	1.2	inactive
23	LOC388538	1	21.3	20.7	22	inactive
24	GNMT	-1	-5.5	-22.9	12	inactive
25	YME1L1	0	2.4	9.3	-4.4	inactive
26	ENO1	-1	-17.5	-9.2	-25.8	inactive
27	CYP27B1	0	7.1	12.6	1.6	inactive
28	AGAP3	0	-3.6	-5.4	-1.9	inactive
29	PRSS1	0	-9.9	-24.3	4.4	inactive
30	PLCB2	0	10.4	4.7	16	inactive
31	GRPR	-1	-4.1	6	-14.2	inactive
32	LOC400172	0	6.5	13.7	-0.6	inactive
33	LOC401051	0	3.4	5.2	1.7	inactive
34	FAM89B	-1	-17.8	-31.4	-4.1	inactive
35	LOC387753	0	27.6	25.5	29.7	inactive
36	CIDEA	0	-3.4	-5.3	-1.6	inactive
37	PDE6H	0	5.8	5.6	6.1	inactive
38	NKX1-2	0	24.2	-2	50.5	inactive
39	CCL24	0	16.1	17	15.2	inactive
40	UCN	0	-2.9	-13.7	7.8	inactive
41	ANKS6	0	15.7	24.2	7.2	inactive
42	PDCL3P4	1	6	18.4	-6.4	inactive
43	LOC338918	0	3.1	-0.9	7.1	inactive
44	AGAP1	0	6	-2.4	14.3	inactive
45	NDRG3	0	7.3	10.4	4.3	inactive
46	LOC341370	1	10.6	27.2	-6	inactive
47	CCDC102A	0	-4.3	11.3	-19.8	inactive
48	YLPM1	0	3.2	2.1	4.4	inactive
49	LOC107986845	1	13.3	15	11.6	inactive
50	CCN4	0	-17.5	-24.8	-10.2	inactive
51	NLGN3	0	-0.7	-12.5	11.1	inactive
52	LOC440819	1	11.8	16.2	7.3	inactive
53	PARP8	0	9.6	5.3	13.9	inactive
54	IPO4	-1	-3.4	-15.7	8.9	inactive
55	FAM32A	0	-1.6	-5.9	2.8	inactive
56	LOC442199	0	14.5	9.7	19.3	inactive
57	KIAA1276	0	-2.3	-18	13.5	inactive
58	LOC442392	1	10.1	-2.4	22.7	inactive
59	GARNL3	0	5.6	5.9	5.3	inactive
60	OR4F15	0	1.5	10	-7	inactive
61	HS6ST1	1	19.8	33.2	6.4	inactive
62	RPP40	0	19.4	16.9	21.8	inactive
63	LIMD1	1	11.3	13.6	9.1	inactive
64	HEXIM1	0	4.7	11.5	-2.1	inactive
65	AR	-2	-19	-17.9	-20.1	active
66	HAGH	0	23.1	27.6	18.5	inactive
67	HCRTR1	0	-4.3	-12.6	4.1	inactive
68	TMEM132A	0	-8.3	-13.5	-3.1	inactive
69	HELZ2	0	5.3	4.7	5.8	inactive
70	RIT2	0	0.1	6.1	-5.9	inactive
71	SCP2	0	8	11.4	4.7	inactive
72	CATSPER3	0	1.7	10.7	-7.3	inactive
73	PTGES	-2	-16.7	-14.8	-18.6	active

Sorted by “protection from cisplatin (shift in death), siRNA D (%)” (highest first): some entries from above.
Gene	two-siRNA summed score (-2 to +2)	mean protection from cisplatin (shift in death) (%)	protection from cisplatin (shift in death), siRNA C (%)	protection from cisplatin (shift in death), siRNA D (%)	Outcome
RPP40	0	19.4	16.9	21.8	inactive
HAGH	0	23.1	27.6	18.5	inactive
LIMD1	1	11.3	13.6	9.1	inactive
HS6ST1	1	19.8	33.2	6.4	inactive
GARNL3	0	5.6	5.9	5.3	inactive
HCRTR1	0	-4.3	-12.6	4.1	inactive
HEXIM1	0	4.7	11.5	-2.1	inactive
TMEM132A	0	-8.3	-13.5	-3.1	inactive
OR4F15	0	1.5	10	-7	inactive
AR	-2	-19	-17.9	-20.1	active
